Measured values reported in PubChem BioAssay AID1479144 (National Center for Advancing Translational Sciences (NCATS), 2020).
The inconclusive results got no clear call from the source; some entries with a clear call stand among them for comparison. Where the call is inconclusive, the potency comes from a doubtful curve fit. Active and inactive are the calls of the source. Calls follow the shape of the full dose curve.

Test: Confirmatory qHTS for Vero E6 cytotoxicity: counterscreen for inhibitors of SARS-S pseudo-typed particle cell entry
Settings: cell viability; series mostly up to 57.1 µM

SMILES: Cc1cc(C(C#N)c2ccc(Cl)cc2)c(Cl)cc1NC(=O)c1cc(I)cc(I)c1O (stereo not given)
- Potency: inconclusive: 42.9 µM [cytotoxic, single point]

SMILES: CCCCCCCCCCCC[n+]1ccc2ccccc2c1
- Potency: active: 3.83 µM

SMILES: CNC(=O)c1cc(Oc2ccc(NC(=O)Nc3ccc(Cl)c(C(F)(F)F)c3)c(F)c2)ccn1
- Potency: inconclusive: 42.9 µM [cytotoxic, single point]

SMILES: CCC(C)(C)C(=O)O[C@H]1C[C@@H](C)C=C2C=C[C@H](C)[C@H](CC[C@@H]3C[C@@H](O)CC(=O)O3)[C@H]21
- Potency: active: 5.41 µM

SMILES: CCOc1cc2ncc(C#N)c(Nc3ccc(OCc4ccccn4)c(Cl)c3)c2cc1NC(=O)/C=C/CN(C)C
- Potency: inconclusive: 1.97 µM [cytotoxic, partial curve]

SMILES: CN(C)[C@@H](CCOc1cccc2ccccc12)c1ccccc1
- Potency: inconclusive: 15.2 µM [cytotoxic, partial curve, poor fit]

SMILES: C[C@@H]1CCO[C@H]2Cn3cc(C(=O)NCc4ccc(F)cc4F)c(=O)c(O)c3C(=O)N12
- Potency: inconclusive: 4.82 µM [cytotoxic, full curve]

SMILES: CN1CCCCC1CCN1c2ccccc2Sc2ccc(S(C)=O)cc21 (stereo not given)
- Potency: inactive

SMILES: CC[C@@]1(O)C(=O)OCc2c1cc1n(c2=O)Cc2cc3c(CN(C)C)c(O)ccc3nc2-1
- Potency: inconclusive: 21.5 µM [cytotoxic, partial curve]

SMILES: COc1cccc2c1C(=O)c1c(O)c3c(c(O)c1C2=O)C[C@@](O)(C(C)=O)C[C@@H]3O[C@H]1C[C@H](N)[C@H](O)[C@H](C)O1
- Potency: active: 13.6 µM
